Binding data for five molecules are collected here from paper PMC11458557.

Holding throughout (assay): SEC; Superdex200 column; 50 mM Tris, 150 mM NaCl, 0.5 mM TCEP, pH 7.5; both purified
On the technique in general: SEC sorts molecules by how far they enter the pores of the column.

Assay [1] deals with T1, Sirt2 aa1-356 (Sirt2 ΔC) (human), Q8IXJ6.
T1 chain: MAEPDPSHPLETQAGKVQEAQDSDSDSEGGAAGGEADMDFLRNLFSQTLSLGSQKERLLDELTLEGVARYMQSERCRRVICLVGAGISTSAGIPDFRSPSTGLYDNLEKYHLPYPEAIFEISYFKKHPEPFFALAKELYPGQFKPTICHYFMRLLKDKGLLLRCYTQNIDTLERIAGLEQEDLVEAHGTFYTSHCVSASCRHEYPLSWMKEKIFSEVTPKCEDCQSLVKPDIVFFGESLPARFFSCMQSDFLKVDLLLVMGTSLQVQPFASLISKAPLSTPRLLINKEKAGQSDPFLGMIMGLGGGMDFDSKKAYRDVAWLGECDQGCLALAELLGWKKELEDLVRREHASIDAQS
The note with it: remark: other sources report otherwise.

Assay [2] deals with Sirt2 core construct, aa56 to 356 (Sirt2 ΔCN) (human) (UniProt Q8IXJ6).
Assay [3] concerns the target T2, Sirt2 isoform 2 splice variant aa38 to 389 (Sirt2 ΔN1) (human), Q8IXJ6.
T2 chain: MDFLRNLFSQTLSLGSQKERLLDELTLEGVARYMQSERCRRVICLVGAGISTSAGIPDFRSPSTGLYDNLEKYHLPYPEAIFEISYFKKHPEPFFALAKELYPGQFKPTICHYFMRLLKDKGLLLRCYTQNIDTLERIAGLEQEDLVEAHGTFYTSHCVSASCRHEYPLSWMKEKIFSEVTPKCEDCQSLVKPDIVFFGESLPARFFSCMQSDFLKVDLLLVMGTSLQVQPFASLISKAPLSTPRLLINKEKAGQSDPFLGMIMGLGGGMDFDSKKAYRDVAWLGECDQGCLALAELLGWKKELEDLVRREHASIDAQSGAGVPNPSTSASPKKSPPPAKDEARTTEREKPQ
The note with it: remark: other sources report otherwise.

Assay [4] addresses T3, full-length Sirt2 (aa1-389, Sirt2-FL) (human), Q8IXJ6.
T3 chain: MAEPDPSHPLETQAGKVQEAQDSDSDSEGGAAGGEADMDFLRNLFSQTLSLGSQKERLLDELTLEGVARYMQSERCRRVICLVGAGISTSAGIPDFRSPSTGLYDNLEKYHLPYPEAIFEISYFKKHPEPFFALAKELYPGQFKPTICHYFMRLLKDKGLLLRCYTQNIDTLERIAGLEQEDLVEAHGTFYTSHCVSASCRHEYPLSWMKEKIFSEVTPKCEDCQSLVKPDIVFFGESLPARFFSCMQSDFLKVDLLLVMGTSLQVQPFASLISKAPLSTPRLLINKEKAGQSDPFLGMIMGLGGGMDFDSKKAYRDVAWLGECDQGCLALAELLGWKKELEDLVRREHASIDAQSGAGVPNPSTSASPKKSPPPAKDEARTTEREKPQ
The note with it: remark: other sources report otherwise.

The target in assay [5] is Sirt2 aa56 to 389 (Sirt2 ΔN2) (human) (UniProt Q8IXJ6).

Results are given in words; binding and its absence hold for the method and conditions named.

B1: Sirt2 aa1-356 (Sirt2 ΔC), Q8IXJ6 1-356 (domain or fragment)
chain: T1 chain
Consider B1, for which, in assay [1], the binding entry is listed as “no binding”.

B2: Sirt2 core construct, aa56 to 356 (Sirt2 ΔCN) (domain or fragment, UniProt Q8IXJ6 56-356)
chain: ERLLDELTLEGVARYMQSERCRRVICLVGAGISTSAGIPDFRSPSTGLYDNLEKYHLPYPEAIFEISYFKKHPEPFFALAKELYPGQFKPTICHYFMRLLKDKGLLLRCYTQNIDTLERIAGLEQEDLVEAHGTFYTSHCVSASCRHEYPLSWMKEKIFSEVTPKCEDCQSLVKPDIVFFGESLPARFFSCMQSDFLKVDLLLVMGTSLQVQPFASLISKAPLSTPRLLINKEKAGQSDPFLGMIMGLGGGMDFDSKKAYRDVAWLGECDQGCLALAELLGWKKELEDLVRREHASIDAQS
Consider B2, for which the binding entry in assay [2] was “no binding”.

B3: Sirt2 isoform 2 splice variant aa38 to 389 (Sirt2 ΔN1), Q8IXJ6 38-389 (domain or fragment)
chain: T2 chain
B3: in assay [3], the binding entry is given as “no binding”.

B4: full-length Sirt2 (aa1-389, Sirt2-FL), Q8IXJ6 1-389 (enzyme)
chain: T3 chain
With B4, the binding result in assay [4] is listed as “no binding”.

B5: Sirt2 aa56 to 389 (Sirt2 ΔN2) (domain or fragment, UniProt Q8IXJ6 56-389)
chain: ERLLDELTLEGVARYMQSERCRRVICLVGAGISTSAGIPDFRSPSTGLYDNLEKYHLPYPEAIFEISYFKKHPEPFFALAKELYPGQFKPTICHYFMRLLKDKGLLLRCYTQNIDTLERIAGLEQEDLVEAHGTFYTSHCVSASCRHEYPLSWMKEKIFSEVTPKCEDCQSLVKPDIVFFGESLPARFFSCMQSDFLKVDLLLVMGTSLQVQPFASLISKAPLSTPRLLINKEKAGQSDPFLGMIMGLGGGMDFDSKKAYRDVAWLGECDQGCLALAELLGWKKELEDLVRREHASIDAQSGAGVPNPSTSASPKKSPPPAKDEARTTEREKPQ
Consider B5, for which, in assay [5], the binding entry is reported as “no binding”.
